# Experimental data: PubChem BioAssay AID1259308 (NCATS, 2017)
# Assay: 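Candidate targets for better recombinant protein yield in mammalian cells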 (primary screen)
# Cell system: human HEK293 embryonic kidney cells stably expressing firefly luciferase (HEK-CMV-Luc2-Hygro)
# Reagent: single siRNA against human genes, 0.8 pmol siRNA per well
# Time to read-out: 72 h
# Measured: 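Reporter luminescence and viable-cell signal on separate replicate plates, given as percent of non-targeting control and median/MAD z-scores, plus per-cell luciferase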
# Scale: total luciferase, z-score and total luciferase, % of control: higher = more reporter protein produced
# Active means: 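Active when the median/MAD z-score for overall luciferase is greater than 3; a gene was taken forward for validation with new siRNAs if at least two of its three siRNAs passed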
# Meaning of the calls: active = raised luciferase; inactive = no rise
# In all, the deposit lists about 59,000 reagents; shown is a part drawn at random. Over the whole deposit, about 1,510 (2.6%) got an active call. 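Calls use total luciferase alone and ignore viability, so some active siRNAs may act by altering cell number.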 The numbers tell different reagents against one gene apart. Not all columns of the deposit are shown. Reagent sequences are not shown.
gene,reagent no.,"total luciferase, z-score","total luciferase, % of control",Outcome
CHIC2 (GeneID 26511),1,0.86,99,inactive
CHIC2 (GeneID 26511),2,3.08,143,active
CHIC2 (GeneID 26511),3,-0.221,77.5,inactive
UGT8 (GeneID 7368),1,0.851,98.8,inactive
UGT8 (GeneID 7368),2,-0.0394,81.1,inactive
UGT8 (GeneID 7368),3,-0.956,62.9,inactive
PDE6C (GeneID 5146),1,0.974,101,inactive
PDE6C (GeneID 5146),2,0.0332,82.5,inactive
PDE6C (GeneID 5146),3,-1.08,60.4,inactive
MAOB (GeneID 4129),1,-0.674,68.5,inactive
MAOB (GeneID 4129),2,0.39,89.7,inactive
MAOB (GeneID 4129),3,-0.498,72,inactive
NORAD (GeneID 647979),1,-1.54,51.3,inactive
NORAD (GeneID 647979),2,2.41,130,inactive
NORAD (GeneID 647979),3,0.758,97,inactive
TPP1 (GeneID 1200),1,0.795,97.7,inactive
TPP1 (GeneID 1200),2,0.543,92.7,inactive
TPP1 (GeneID 1200),3,-0.247,77,inactive
UCHL5 (GeneID 51377),1,-2.12,39.7,inactive
UCHL5 (GeneID 51377),2,-0.8,66,inactive
UCHL5 (GeneID 51377),3,-0.295,76,inactive
ADAM23 (GeneID 8745),1,-0.862,64.7,inactive
ADAM23 (GeneID 8745),2,1.69,115,inactive
ADAM23 (GeneID 8745),3,-0.493,72.1,inactive
MATCAP2 (GeneID 23366),1,0.463,91.1,inactive
MATCAP2 (GeneID 23366),2,0.298,87.8,inactive
MATCAP2 (GeneID 23366),3,1.22,106,inactive

Part of the list above, set out differently.
gene	reagent no.	total luciferase, z-score	total luciferase, % of control	Outcome
NORAD (GeneID 647979)	2	2.41	130	inactive
NORAD (GeneID 647979)	3	0.758	97	inactive
TPP1 (GeneID 1200)	1	0.795	97.7	inactive
TPP1 (GeneID 1200)	2	0.543	92.7	inactive
TPP1 (GeneID 1200)	3	-0.247	77	inactive
UCHL5 (GeneID 51377)	1	-2.12	39.7	inactive
UCHL5 (GeneID 51377)	2	-0.8	66	inactive
UCHL5 (GeneID 51377)	3	-0.295	76	inactive
ADAM23 (GeneID 8745)	1	-0.862	64.7	inactive

Next entries:
gene,reagent no.,"total luciferase, z-score","total luciferase, % of control",Outcome
ZNF292 (GeneID 23036),1,0.122,84.3,inactive
ZNF292 (GeneID 23036),2,1.69,116,inactive
ZNF292 (GeneID 23036),3,-1.83,45.6,inactive
PSMD8 (GeneID 5714),1,-0.33,75.3,inactive
PSMD8 (GeneID 5714),2,1.25,107,inactive
PSMD8 (GeneID 5714),3,1.29,108,inactive
NT5C1A (GeneID 84618),1,-2.27,36.7,inactive
NT5C1A (GeneID 84618),2,0.327,88.4,inactive
NT5C1A (GeneID 84618),3,-0.637,69.2,inactive
SAMD14 (GeneID 201191),1,0.608,94,inactive
SAMD14 (GeneID 201191),2,-0.417,73.6,inactive
SAMD14 (GeneID 201191),3,-0.635,69.3,inactive
OR5T3 (GeneID 390154),1,-1.61,49.8,inactive
OR5T3 (GeneID 390154),2,-0.703,67.9,inactive
OR5T3 (GeneID 390154),3,0.565,93.1,inactive
DELEC1 (GeneID 50514),1,0.552,92.9,inactive
DELEC1 (GeneID 50514),2,-0.91,63.8,inactive
DELEC1 (GeneID 50514),3,-0.359,74.7,inactive
THBS2 (GeneID 7058),1,0.801,97.8,inactive
THBS2 (GeneID 7058),2,-1.48,52.5,inactive
THBS2 (GeneID 7058),3,-2.3,36.2,inactive
TADA2A (GeneID 6871),1,-1.33,55.5,inactive
TADA2A (GeneID 6871),2,0.641,94.6,inactive
TADA2A (GeneID 6871),3,-0.74,67.2,inactive
KCNH1 (GeneID 3756),1,0.0305,82.5,inactive
KCNH1 (GeneID 3756),2,-0.514,71.7,inactive
KCNH1 (GeneID 3756),3,-0.749,67,inactive
NABP1 (GeneID 64859),1,-0.603,69.9,inactive
NABP1 (GeneID 64859),2,0.944,101,inactive
NABP1 (GeneID 64859),3,-0.237,77.2,inactive
